No constants are given. Whether binding was seen depends on the method and setting. Binding seen in cells or lysates may run through a third protein. These calls come from enrichment with a bait or labelling near it, and not all partners need be listed.
Biological target: purified human platelet αIIbβ3 integrin (human)
Experiment: affinity purification with mass spectrometry; latex beads coated with RGD peptide-activated human platelet β3 integrins, incubated with fractionated heparin-anticoagulated human plasma; 2D electrophoresis, MALDI Q-TOF; only the target purified

- binding: binds
B1: human plasma apoA-IV (protein, UniProt P06727 21-396)
chain: EVSADQVATVMWDYFSQLSNNAKEAVEHLQKSELTQQLNALFQDKLGEVNTYAGDLQKKLVPFATELHERLAKDSEKLKEEIGKELEELRARLLPHANEVSQKIGDNLRELQQRLEPYADQLRTQVSTQAEQLRRQLTPYAQRMERVLRENADSLQASLRPHADELKAKIDQNVEELKGRLTPYADEFKVKIDQTVEELRRSLAPYAQDTQEKLNHQLEGLTFQMKKNAEELKARISASAEELRQRLAPLAEDVRGNLRGNTEGLQKSLAELGGHLDQQVEEFRRRVEPYGENFNKALVQQMEQLRQKLGPHAGDVEGHLSFLEKDLRDKVNSFFSTFKEKESQDKTLSLPELEQQQEQQQEQQQEQVQMLAPLES

Source: article PMC6127106
